Experimental data published in the supplement of paper PMC12819154, “High-throughput peptide-centric local stability assay extends protein–ligand identification to membrane proteins, tissues and bacteria” (Nature Structural & Molecular Biology, 2025).
This is one part of the list. Small differences around the control level are noise.

Chains of the proteins cited; added tags and fusions are not shown. Lines headed by an entry give the natural chain unless they say otherwise; changes in a name come on top.
UniProt Q9BR11: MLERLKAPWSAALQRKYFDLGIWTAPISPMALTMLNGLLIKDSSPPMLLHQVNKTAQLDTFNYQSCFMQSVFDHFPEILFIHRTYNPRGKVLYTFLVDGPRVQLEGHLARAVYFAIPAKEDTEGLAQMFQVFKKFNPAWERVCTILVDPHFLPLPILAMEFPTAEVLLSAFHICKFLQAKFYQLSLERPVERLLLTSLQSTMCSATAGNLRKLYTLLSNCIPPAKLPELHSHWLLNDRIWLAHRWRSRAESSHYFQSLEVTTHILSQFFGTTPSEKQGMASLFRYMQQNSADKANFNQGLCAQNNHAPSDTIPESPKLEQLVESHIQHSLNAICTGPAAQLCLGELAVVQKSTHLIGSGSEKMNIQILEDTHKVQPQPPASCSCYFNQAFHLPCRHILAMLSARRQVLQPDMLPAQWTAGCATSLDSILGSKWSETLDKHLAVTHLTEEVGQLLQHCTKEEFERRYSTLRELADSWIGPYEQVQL
UniProt Q9BPX7: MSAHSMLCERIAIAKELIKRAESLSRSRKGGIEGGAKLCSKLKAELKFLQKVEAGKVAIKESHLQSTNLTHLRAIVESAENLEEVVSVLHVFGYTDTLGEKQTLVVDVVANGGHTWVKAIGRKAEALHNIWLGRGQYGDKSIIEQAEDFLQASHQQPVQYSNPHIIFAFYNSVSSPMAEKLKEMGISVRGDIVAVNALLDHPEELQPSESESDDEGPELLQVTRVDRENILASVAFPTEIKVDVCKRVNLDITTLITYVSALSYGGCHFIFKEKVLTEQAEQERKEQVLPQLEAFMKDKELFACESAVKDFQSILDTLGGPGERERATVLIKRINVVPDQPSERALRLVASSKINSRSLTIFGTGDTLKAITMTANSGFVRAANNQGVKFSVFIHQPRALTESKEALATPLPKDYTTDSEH
UniProt Q99966: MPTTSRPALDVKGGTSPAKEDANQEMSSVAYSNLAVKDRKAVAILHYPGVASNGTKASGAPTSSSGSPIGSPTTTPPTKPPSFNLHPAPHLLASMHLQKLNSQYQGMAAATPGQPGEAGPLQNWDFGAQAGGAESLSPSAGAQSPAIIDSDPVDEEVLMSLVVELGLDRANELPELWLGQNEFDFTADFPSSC
UniProt Q96T88: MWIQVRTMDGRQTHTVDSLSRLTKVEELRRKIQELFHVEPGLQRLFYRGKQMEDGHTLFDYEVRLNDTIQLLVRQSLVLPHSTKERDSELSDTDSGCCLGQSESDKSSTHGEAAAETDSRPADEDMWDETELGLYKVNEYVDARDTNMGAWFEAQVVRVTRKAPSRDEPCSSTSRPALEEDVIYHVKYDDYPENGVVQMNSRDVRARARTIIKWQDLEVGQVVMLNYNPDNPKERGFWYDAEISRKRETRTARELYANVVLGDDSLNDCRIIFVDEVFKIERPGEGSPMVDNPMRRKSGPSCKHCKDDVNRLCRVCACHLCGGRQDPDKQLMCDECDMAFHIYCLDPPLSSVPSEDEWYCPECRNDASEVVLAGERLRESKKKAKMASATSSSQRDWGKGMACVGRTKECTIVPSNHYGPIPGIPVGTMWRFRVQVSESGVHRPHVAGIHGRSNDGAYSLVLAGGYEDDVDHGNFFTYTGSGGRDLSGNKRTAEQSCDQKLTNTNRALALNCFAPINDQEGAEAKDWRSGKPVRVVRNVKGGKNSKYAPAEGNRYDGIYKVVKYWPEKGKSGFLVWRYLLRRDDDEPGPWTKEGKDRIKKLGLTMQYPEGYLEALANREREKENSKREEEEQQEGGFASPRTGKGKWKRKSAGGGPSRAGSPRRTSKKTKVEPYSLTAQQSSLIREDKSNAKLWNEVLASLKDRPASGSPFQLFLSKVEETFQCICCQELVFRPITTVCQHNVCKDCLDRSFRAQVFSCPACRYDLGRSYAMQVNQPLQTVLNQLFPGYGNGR
UniProt Q99963: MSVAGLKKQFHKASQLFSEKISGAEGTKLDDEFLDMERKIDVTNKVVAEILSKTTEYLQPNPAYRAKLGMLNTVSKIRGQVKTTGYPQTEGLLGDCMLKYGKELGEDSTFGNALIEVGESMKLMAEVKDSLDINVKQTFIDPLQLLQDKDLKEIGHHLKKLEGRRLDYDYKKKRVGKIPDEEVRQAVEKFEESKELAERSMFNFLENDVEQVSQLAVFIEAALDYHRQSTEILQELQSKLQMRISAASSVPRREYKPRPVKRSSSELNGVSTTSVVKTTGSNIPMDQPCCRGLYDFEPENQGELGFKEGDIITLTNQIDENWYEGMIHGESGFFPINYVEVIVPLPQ
UniProt Q9BTX7: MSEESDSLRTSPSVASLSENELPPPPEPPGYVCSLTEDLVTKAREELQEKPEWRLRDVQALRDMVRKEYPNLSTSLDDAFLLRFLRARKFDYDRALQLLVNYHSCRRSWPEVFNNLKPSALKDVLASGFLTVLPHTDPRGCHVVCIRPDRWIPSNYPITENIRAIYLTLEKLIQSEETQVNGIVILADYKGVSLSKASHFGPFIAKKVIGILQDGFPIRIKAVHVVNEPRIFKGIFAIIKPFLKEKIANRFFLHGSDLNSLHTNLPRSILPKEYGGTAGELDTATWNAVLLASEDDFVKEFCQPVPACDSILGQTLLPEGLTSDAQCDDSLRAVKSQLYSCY
UniProt Q99816: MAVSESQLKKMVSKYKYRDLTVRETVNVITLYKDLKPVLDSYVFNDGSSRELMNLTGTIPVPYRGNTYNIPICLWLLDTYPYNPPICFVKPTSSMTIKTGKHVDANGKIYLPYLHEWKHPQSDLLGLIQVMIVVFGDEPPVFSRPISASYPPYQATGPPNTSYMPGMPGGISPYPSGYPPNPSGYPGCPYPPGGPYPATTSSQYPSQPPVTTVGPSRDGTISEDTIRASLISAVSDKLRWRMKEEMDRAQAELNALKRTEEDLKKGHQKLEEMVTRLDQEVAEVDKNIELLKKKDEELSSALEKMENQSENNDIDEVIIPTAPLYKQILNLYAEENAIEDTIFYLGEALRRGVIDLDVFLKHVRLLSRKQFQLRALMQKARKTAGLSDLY
UniProt Q9BQP7: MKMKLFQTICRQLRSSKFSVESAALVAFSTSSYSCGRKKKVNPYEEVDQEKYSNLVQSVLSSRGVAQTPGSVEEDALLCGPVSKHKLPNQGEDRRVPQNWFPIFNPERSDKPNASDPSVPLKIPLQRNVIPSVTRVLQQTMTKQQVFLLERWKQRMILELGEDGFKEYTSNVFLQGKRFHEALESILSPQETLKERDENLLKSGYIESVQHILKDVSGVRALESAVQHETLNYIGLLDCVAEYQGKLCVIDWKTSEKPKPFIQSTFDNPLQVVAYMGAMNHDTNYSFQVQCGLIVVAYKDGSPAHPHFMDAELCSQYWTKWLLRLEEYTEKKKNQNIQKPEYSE
UniProt Q9BRQ3: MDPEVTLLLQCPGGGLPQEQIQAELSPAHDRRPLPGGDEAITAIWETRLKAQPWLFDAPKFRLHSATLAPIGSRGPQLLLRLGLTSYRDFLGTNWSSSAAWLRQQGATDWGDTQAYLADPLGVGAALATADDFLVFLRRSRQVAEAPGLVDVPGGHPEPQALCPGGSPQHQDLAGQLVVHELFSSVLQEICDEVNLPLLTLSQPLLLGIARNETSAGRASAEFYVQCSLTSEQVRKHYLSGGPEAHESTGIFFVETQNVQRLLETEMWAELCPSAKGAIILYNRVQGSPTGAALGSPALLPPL
UniProt Q96S44: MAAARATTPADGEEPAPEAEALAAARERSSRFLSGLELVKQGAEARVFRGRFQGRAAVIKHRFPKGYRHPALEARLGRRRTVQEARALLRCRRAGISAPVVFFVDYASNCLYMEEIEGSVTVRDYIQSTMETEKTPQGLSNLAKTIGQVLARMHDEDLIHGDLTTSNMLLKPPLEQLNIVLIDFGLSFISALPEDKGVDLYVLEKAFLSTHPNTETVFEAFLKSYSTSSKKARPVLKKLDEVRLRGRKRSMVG
UniProt Q99569: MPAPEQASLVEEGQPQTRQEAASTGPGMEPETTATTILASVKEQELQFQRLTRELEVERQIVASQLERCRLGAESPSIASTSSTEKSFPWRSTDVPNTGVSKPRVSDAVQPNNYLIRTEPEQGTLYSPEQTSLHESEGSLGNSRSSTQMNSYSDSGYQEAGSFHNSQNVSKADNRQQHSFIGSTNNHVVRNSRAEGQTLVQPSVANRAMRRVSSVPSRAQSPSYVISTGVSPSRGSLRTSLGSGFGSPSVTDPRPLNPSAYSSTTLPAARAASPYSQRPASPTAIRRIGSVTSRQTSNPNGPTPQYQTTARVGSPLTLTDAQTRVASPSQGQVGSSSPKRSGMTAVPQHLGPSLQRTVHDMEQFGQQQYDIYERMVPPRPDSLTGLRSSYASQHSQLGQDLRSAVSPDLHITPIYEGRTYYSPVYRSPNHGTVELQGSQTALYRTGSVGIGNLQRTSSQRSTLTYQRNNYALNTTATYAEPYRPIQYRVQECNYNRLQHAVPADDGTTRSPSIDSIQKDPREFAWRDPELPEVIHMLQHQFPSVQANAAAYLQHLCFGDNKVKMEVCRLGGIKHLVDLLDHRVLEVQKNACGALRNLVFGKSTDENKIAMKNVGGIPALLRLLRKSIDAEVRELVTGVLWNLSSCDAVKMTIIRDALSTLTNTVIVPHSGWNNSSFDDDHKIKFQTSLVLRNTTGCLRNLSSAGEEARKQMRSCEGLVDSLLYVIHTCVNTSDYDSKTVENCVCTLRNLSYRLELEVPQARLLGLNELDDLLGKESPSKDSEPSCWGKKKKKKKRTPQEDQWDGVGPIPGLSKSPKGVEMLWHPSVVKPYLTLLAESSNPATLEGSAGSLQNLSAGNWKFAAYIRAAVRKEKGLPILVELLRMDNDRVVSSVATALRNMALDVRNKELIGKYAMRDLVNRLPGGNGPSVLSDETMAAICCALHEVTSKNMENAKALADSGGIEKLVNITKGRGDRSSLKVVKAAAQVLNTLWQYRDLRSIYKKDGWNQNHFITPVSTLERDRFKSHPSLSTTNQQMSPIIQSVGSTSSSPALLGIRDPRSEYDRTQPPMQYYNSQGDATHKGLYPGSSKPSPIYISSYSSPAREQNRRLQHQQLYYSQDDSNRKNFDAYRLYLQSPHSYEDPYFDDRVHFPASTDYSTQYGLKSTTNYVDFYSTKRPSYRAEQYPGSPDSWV
UniProt Q9BSL1: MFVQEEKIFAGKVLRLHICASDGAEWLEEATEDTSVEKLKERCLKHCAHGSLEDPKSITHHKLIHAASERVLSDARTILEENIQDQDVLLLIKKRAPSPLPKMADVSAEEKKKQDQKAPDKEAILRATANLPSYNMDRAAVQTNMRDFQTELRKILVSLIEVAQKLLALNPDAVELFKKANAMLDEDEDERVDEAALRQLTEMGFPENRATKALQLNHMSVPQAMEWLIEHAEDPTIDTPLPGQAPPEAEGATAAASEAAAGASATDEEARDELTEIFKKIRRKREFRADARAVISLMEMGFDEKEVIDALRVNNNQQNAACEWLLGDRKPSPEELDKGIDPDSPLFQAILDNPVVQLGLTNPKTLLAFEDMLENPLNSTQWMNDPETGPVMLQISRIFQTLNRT
UniProt Q9BPX3, whole entry, looked up: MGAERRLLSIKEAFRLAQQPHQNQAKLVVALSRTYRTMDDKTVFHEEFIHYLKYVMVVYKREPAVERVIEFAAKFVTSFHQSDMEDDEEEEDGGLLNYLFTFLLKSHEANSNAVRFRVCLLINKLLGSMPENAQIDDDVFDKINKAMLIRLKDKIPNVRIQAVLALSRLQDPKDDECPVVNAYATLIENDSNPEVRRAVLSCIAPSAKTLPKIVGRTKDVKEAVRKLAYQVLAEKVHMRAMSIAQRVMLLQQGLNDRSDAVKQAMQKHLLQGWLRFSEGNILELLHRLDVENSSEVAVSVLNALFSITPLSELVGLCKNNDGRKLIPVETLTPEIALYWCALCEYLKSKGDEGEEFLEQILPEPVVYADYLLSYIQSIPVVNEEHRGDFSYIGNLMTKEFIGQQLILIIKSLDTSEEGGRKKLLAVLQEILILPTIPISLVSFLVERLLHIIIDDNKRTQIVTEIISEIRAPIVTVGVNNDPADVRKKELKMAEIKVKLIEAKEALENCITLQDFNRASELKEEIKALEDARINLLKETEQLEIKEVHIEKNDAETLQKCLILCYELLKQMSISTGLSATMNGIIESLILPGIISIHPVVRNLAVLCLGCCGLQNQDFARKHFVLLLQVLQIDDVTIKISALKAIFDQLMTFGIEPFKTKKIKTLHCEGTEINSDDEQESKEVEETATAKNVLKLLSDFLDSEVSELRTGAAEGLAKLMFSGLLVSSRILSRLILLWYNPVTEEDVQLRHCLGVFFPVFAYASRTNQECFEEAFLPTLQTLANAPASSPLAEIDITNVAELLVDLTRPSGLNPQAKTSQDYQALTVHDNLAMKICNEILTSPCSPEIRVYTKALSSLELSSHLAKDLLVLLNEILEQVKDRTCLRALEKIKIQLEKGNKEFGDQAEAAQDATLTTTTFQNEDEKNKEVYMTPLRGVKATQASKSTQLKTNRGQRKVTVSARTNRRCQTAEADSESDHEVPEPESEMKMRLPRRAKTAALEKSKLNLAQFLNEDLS
UniProt Q99584: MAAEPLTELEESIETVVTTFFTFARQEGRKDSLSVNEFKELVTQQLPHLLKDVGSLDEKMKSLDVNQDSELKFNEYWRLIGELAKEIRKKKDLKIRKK

These targets were tested with Cc1nc(Nc2ncc(C(=O)Nc3c(C)cccc3Cl)s2)cc(N2CCN(CCO)CC2)n1 [dasatinib] (assay: log2 fold change of tryptic peptide abundance, ligand vs vehicle (limited proteolysis) (log2 ratio); higher = more trypsin-susceptible (destabilized)). Settings: ligand concentration: 5 uM; sample: K562 cleared lysate.

Question: “COQ7 (peptide sequence: TSVGPVIQK, peptide start residue: 77) (UniProt Q99807)” was tested. Which log2 fold change did it give?
Answer: -0.103

Question: How did the log2 fold change turn out when “CPPED1 (peptide sequence: LTEQAVQAINK, peptide start residue: 67) (UniProt Q9BRF8)” was run?
Answer: 0.781

Question: With “UniProt Q9BR11 (peptide sequence: MNIQILEDTHK, peptide start residue: 363)” as the target, how does the log2 fold change read?
Answer: 0.552

Question: With “YIPF4 (peptide sequence: LNLGGDFIK, peptide start residue: 39) (UniProt Q9BSR8)” as the target, how does the log2 fold change read?
Answer: 0.147

Question: Which log2 fold change does the source give for “COPS4 (peptide sequence: EALPTWDK, peptide start residue: 365) (UniProt Q9BT78)” here?
Answer: -0.343

Question: “PHF23 (peptide sequence: LGPGAGAGFGVLR, peptide start residue: 188) (UniProt Q9BUL5)” was tested. Which log2 fold change did it give?
Answer: 0.588

Question: For “NAPG (peptide sequence: TIAQVLVHLHRNDYVAAER, peptide start residue: 197) (UniProt Q99747)”, which log2 fold change is on record?
Answer: -0.571

Question: “C7orf25 (peptide sequence: SAHSMLCER, peptide start residue: 2) (UniProt Q9BPX7)” was tested. Which log2 fold change did it give?
Answer: 0.106

Question: “MMS19 (peptide sequence: CFAGLLNK, peptide start residue: 760) (UniProt Q96T76)” was tested. Which log2 fold change did it give?
Answer: 0.167

Question: “UniProt Q9BQ75 (peptide sequence: VVHLGVGTPGR, peptide start residue: 205)” was tested. Which log2 fold change did it give?
Answer: -0.383

Question: How did the log2 fold change turn out when “UniProt Q9BRA0 (peptide sequence: VLGLAMVPGHHIVSIEVQR, peptide start residue: 98)” was run?
Answer: -0.269

Question: For “MSTO1 (peptide sequence: LTTHKEELYPK, peptide start residue: 101) (UniProt Q9BUK6)”, which log2 fold change is on record?
Answer: -0.0798

Question: Which log2 fold change does the source give for “UniProt Q99966 (peptide sequence: AVAILHYPGVASNGTK, peptide start residue: 41)” here?
Answer: -0.236

Question: For “UHRF1 (peptide sequence: REEEEQQEGGFASPR, peptide start residue: 627) (UniProt Q96T88)”, which log2 fold change is on record?
Answer: -0.487

Question: Which log2 fold change does the source give for “UniProt Q9BQ87 (peptide sequence: YLASGSFDK, peptide start residue: 456)” here?
Answer: -0.188

Question: “NEU1 (peptide sequence: DGVFCLLSDDHGASWR, peptide start residue: 226) (UniProt Q99519)” was tested. Which log2 fold change did it give?
Answer: 0.21

Question: For “DHRS4 (peptide sequence: MLWMDKEKEESMK, peptide start residue: 222) (UniProt Q9BTZ2)”, which log2 fold change is on record?
Answer: -0.169

Question: For “UniProt Q96SQ5 (peptide sequence: HSVIPHQK, peptide start residue: 225)”, which log2 fold change is on record?
Answer: -0.477

Question: How did the log2 fold change turn out when “SH3GL3 (peptide sequence: QAVEKFEESK, peptide start residue: 185) (UniProt Q99963)” was run?
Answer: -0.254

Question: “TTPAL (peptide sequence: ALQLLVNYHSCR, peptide start residue: 95) (UniProt Q9BTX7)” was tested. Which log2 fold change did it give?
Answer: 0.267

Question: “IWS1 (peptide sequence: KLTLLPAVVMHLK, peptide start residue: 587) (UniProt Q96ST2)” was tested. Which log2 fold change did it give?
Answer: -0.245

Question: With “TSG101 (peptide sequence: DLKPVLDSYVFNDGSSR, peptide start residue: 34) (UniProt Q99816)” as the target, how does the log2 fold change read?
Answer: -0.612

Question: “UniProt Q9BQP7 (peptide sequence: MILELGEDGFKEYTSNVFLQGKR, peptide start residue: 156)” was tested. Which log2 fold change did it give?
Answer: 0.599

Question: With “AARSD1 (peptide sequence: TTSWELGR, peptide start residue: 127) (UniProt Q9BTE6)” as the target, how does the log2 fold change read?
Answer: 0.477

Question: “NUDT22 (peptide sequence: AQPWLFDAPK, peptide start residue: 51) (UniProt Q9BRQ3)” was tested. Which log2 fold change did it give?
Answer: -0.181

Question: Which log2 fold change does the source give for “TP53RK (peptide sequence: FLSGLELVK, peptide start residue: 32) (UniProt Q96S44)” here?
Answer: -0.0409

Question: With “ZNF184 (peptide sequence: AFNGPSTFIR, peptide start residue: 398) (UniProt Q99676)” as the target, how does the log2 fold change read?
Answer: 0.212

Question: Which log2 fold change does the source give for “CCM2 (peptide sequence: AIFDGASTPTHHLSLHSDDSSTK, peptide start residue: 232) (UniProt Q9BSQ5)” here?
Answer: 0.341

Question: Which log2 fold change does the source give for “SEPTIN5 (peptide sequence: ADCLVPSEIR, peptide start residue: 191) (UniProt Q99719)” here?
Answer: -0.403

Question: For “RSF1 (peptide sequence: QLVNGEVSDER, peptide start residue: 440) (UniProt Q96T23)”, which log2 fold change is on record?
Answer: -0.721

Question: “PKP4 (peptide sequence: TYYSPVYR, peptide start residue: 419) (UniProt Q99569)” was tested. Which log2 fold change did it give?
Answer: 0.315

Question: How did the log2 fold change turn out when “UniProt Q9BPX6 (peptide sequence: KTADLAPHPEEK, peptide start residue: 88)” was run?
Answer: -0.348

Question: “USB1 (peptide sequence: TRPGDGSHR, peptide start residue: 24) (UniProt Q9BQ65)” was tested. Which log2 fold change did it give?
Answer: -0.295

Question: “MRPL45 (peptide sequence: IVPPWAPPKQPILK, peptide start residue: 265) (UniProt Q9BRJ2)” was tested. Which log2 fold change did it give?
Answer: -0.0933

Question: For “MNT (peptide sequence: AGLGPPK, peptide start residue: 348) (UniProt Q99583)”, which log2 fold change is on record?
Answer: -0.608

Question: With “UBAC1 (peptide sequence: ERCLKHCAHGSLEDPK, peptide start residue: 41) (UniProt Q9BSL1)” as the target, how does the log2 fold change read?
Answer: 1.07

Question: For “NCAPG (peptide sequence: TMDDKTVFHEEFIHYLK, peptide start residue: 37) (UniProt Q9BPX3)”, which log2 fold change is on record?
Answer: -0.217

Question: For “S100A13 (peptide sequence: SLDVNQDSELK, peptide start residue: 62) (UniProt Q99584)”, which log2 fold change is on record?
Answer: 0.089
